Data as given in PubChem BioAssay AID652243 (Drosophila RNAi Screening Center, 2013).
The deposit covers about 24,000 reagents; this is an unselected part of those with a known target gene and a result. Of all reagents, 246 (1%) got an active call. 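Plates not normalised; calls are printed but the firefly/Renilla ratio behind them is not deposited; fold cut for lowering reported inconsistently.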 The raw values are shown without normalisation. A plus sign joins genes that one reagent is predicted to hit. No sequences are given here. Not given: the amount of reagent.

- Aim: 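Knock-downs that decrease or increase androgen receptor reporter signal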 (primary screen)
- System: Drosophila S2R+ cells
- Knock-down reagent: long dsRNA against Drosophila genes
- Timing: 72 h (48 h, then 24 h hormone)
- Conditions: synthetic androgen R1881 at 10 nM for 24 h
- Read-out: 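Firefly light from an androgen-responsive reporter and Renilla control light per well, raw and unnormalised, for each of two replicates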
- Scale: firefly reporter light: higher = more light from androgen-responsive reporter; Renilla control light: higher = more constitutive control signal (cell number, transfection)
- Hit rule: 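Across duplicate plates, a knock-down whose log firefly/Renilla ratio shifted a set fold down or up from the GFP/LacZ control mean was a hit; the downward cut appears as both 1.5 and 3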
- Calls: active = hit: reporter lowered or raised; inactive = no hit

gene | dsRNA | firefly reporter light, replicate 1 | firefly reporter light, replicate 2 | Renilla control light, replicate 1 | Renilla control light, replicate 2 | Outcome
CG3982 | DRSC23139 | 7.08e5 | 8.75e5 | 9.70e5 | 1.34e6 | inactive
CG3982 | DRSC26894 | 3.38e5 | 2.64e5 | 9.12e5 | 9.97e5 | inactive
CG15414 | DRSC00429 | 1.16e5 | 1.25e5 | 7.63e5 | 9.15e5 | inactive
CG15414 | DRSC22353 | 6.41e5 | 4.94e5 | 1.85e6 | 1.87e6 | inactive
CG15414 | DRSC28498 | 3.27e5 | 5.40e5 | 9.27e5 | 1.35e6 | inactive
Dfd (Deformed) | DRSC12593 | 1.36e5 | 1.62e5 | 2.14e6 | 2.76e6 | inactive
Dfd (Deformed) | DRSC27981 | 7.27e5 | 4.93e5 | 1.87e6 | 1.03e6 | inactive
RpS20 (Ribosomal protein S20) | DRSC16836 | 1.75e5 | 1.69e5 | 1.92e6 | 1.42e6 | inactive
Ipo9 (Importin 9) | DRSC16813 | 1.37e5 | 79725 | 1.81e6 | 1.71e6 | inactive
CG18788 | DRSC02697 | 1.70e5 | 1.53e5 | 1.34e6 | 1.48e6 | inactive
fbl (fumble) | DRSC11886 | 4.54e5 | 2.47e5 | 3.38e6 | 2.73e6 | inactive
fbl (fumble) | DRSC27922 | 4.74e5 | 4.07e5 | 1.33e6 | 1.36e6 | inactive
fbl (fumble) | DRSC29115 | 7.29e5 | 1.02e6 | 1.42e6 | 1.28e6 | inactive
Tmlh (Trimethyllysine hydroxylase) | DRSC15563 | 2.79e5 | 4.06e5 | 2.91e6 | 3.35e6 | inactive
Acsf3 (Acyl-CoA synthetase family member 3) | DRSC18146 | 3.07e5 | 4.89e5 | 2.65e6 | 3.30e6 | inactive
IFT54 (Intraflagellar transport 54) | DRSC15469 | 1.73e5 | 2.41e5 | 2.59e6 | 3.17e6 | inactive
Lamtor4 (Late endosomal/lysosomal adaptor, MAPK and MTOR activator 4) | DRSC08436 | 1.55e5 | 1.34e5 | 1.77e6 | 2.24e6 | inactive
CG42518 + MED9 | DRSC06917 | 1.13e6 | 8.43e5 | 1.20e6 | 1.06e6 | inactive
CG17580 | DRSC06683 | 4.18e5 | 2.95e5 | 1.28e6 | 1.96e6 | inactive
CG17580 | DRSC27009 | 4.54e5 | 3.10e5 | 7.98e5 | 6.62e5 | inactive
CG6933 | DRSC10751 | 69097 | 51498 | 5.43e5 | 3.29e5 | inactive
Or85e (Odorant receptor 85e) | DRSC16768 | 1.33e5 | 1.86e5 | 2.18e6 | 1.62e6 | inactive
CG31007 | DRSC14029 | 8.02e5 | 3.98e5 | 1.30e6 | 6.80e5 | inactive
CG31007 | DRSC28221 | 3.64e5 | 5.47e5 | 1.47e6 | 2.04e6 | inactive
zyd (zydeco) | DRSC20716 | 2.95e5 | 91187 | 6.40e5 | 4.80e5 | inactive
mag (magro) | DRSC11787 | 35866 | 43985 | 2.89e5 | 3.99e5 | inactive
mag (magro) | DRSC25641 | 5.57e5 | 7.32e5 | 6.77e5 | 8.74e5 | inactive
CG9592 | DRSC11078 | 2.82e5 | 2.01e5 | 2.36e6 | 1.74e6 | inactive
nSMase (neutral sphingomyelinase) | DRSC08237 | 5.81e5 | 7.64e5 | 1.64e6 | 1.58e6 | inactive
CG32588 | DRSC22285 | 8.32e5 | 7.05e5 | 2.13e6 | 2.02e6 | inactive
CG10317 | DRSC14229 | 2.26e5 | 2.03e5 | 2.56e6 | 2.32e6 | inactive
Lkr (Leucokinin receptor) | DRSC09754 | 79281 | 88221 | 9.83e5 | 8.82e5 | inactive
Jon65Ai (Jonah 65Ai) | DRSC09731 | 2.84e5 | 2.51e5 | 3.46e6 | 3.12e6 | inactive
Jon65Ai (Jonah 65Ai) | DRSC24837 | 5.21e5 | 4.83e5 | 5.31e5 | 6.18e5 | inactive
brwl (brickwall) | DRSC01080 | 19673 | 21948 | 75701 | 59711 | inactive
brwl (brickwall) | DRSC24965 | 6.38e5 | 8.32e5 | 1.02e6 | 9.41e5 | inactive
PRL-1 (PRL-1 phosphatase) | DRSC03393 | 1.90e5 | 2.44e5 | 2.53e6 | 3.01e6 | inactive
PRL-1 (PRL-1 phosphatase) | DRSC27332 | 2.25e5 | 2.06e5 | 6.39e5 | 5.89e5 | inactive
PRL-1 (PRL-1 phosphatase) | DRSC37036 | – | – | – | – | inactive
CG43897 | DRSC10173 | 1.24e5 | 1.15e5 | 1.43e6 | 9.81e5 | inactive
CG43897 | DRSC10967 | 2.64e5 | 3.64e5 | 3.65e6 | 3.50e6 | inactive
CG43897 | DRSC25184 | 7.35e5 | 4.41e5 | 5.95e5 | 5.51e5 | inactive
CG43897 | DRSC25785 | 4.09e5 | 4.30e5 | 7.95e5 | 5.76e5 | inactive
CG5543 | DRSC04511 | 7.53e5 | 5.54e5 | 1.26e6 | 9.67e5 | inactive
glob2 (globin 2) | DRSC12560 | 48864 | 60096 | 1.48e6 | 1.28e6 | inactive
ldbr (lariat debranching enzyme) | DRSC10933 | 4.97e5 | 5.61e5 | 5.12e5 | 8.96e5 | inactive
dmrt99B (doublesex-Mab related 99B) | DRSC22977 | 7.82e5 | 7.48e5 | 9.82e5 | 1.29e6 | inactive
dmrt99B (doublesex-Mab related 99B) | DRSC25777 | 2.03e5 | 2.26e5 | 6.34e5 | 4.81e5 | inactive
CG10467 + CG10469 | DRSC28645 | 3.86e5 | 3.82e5 | 1.29e6 | 1.26e6 | inactive
Ak2 (Adenylate kinase 2) | DRSC04043 | 2.98e5 | 2.56e5 | 1.80e6 | 1.62e6 | inactive
Ak2 (Adenylate kinase 2) | DRSC36736 | – | – | – | – | inactive
alphaTry (alphaTrypsin) | DRSC07577 | 4.69e5 | 2.53e5 | 2.81e6 | 2.09e6 | inactive
CG31251 | DRSC16247 | 53056 | 1.01e5 | 6.47e5 | 8.36e5 | inactive
Cf2 (Chorion factor 2) | DRSC23015 | 9.41e5 | 1.04e6 | 1.42e5 | 2.28e5 | inactive
Cf2 (Chorion factor 2) | DRSC28177 | 3.19e5 | 3.45e5 | 1.01e6 | 6.76e5 | inactive
Gli (Gliotactin) | DRSC03332 | 2.35e5 | 2.07e5 | 1.80e6 | 2.24e6 | inactive
Arms (Ankyrin repeat-rich membrane spanning) | DRSC03856 | 6.77e5 | 6.94e5 | 1.67e6 | 1.27e6 | inactive
Arms (Ankyrin repeat-rich membrane spanning) | DRSC03857 | 1.39e5 | 1.73e5 | 6.13e5 | 4.41e5 | inactive
Arms (Ankyrin repeat-rich membrane spanning) | DRSC04052 | 1.26e6 | 1.05e6 | 3.00e6 | 2.84e6 | inactive
Arms (Ankyrin repeat-rich membrane spanning) | DRSC04256 | 1.77e5 | 2.07e5 | 8.45e5 | 5.72e5 | inactive
Arms (Ankyrin repeat-rich membrane spanning) | DRSC28371 | 3.76e5 | 7.00e5 | 9.59e5 | 1.54e6 | inactive
CG32246 | DRSC08115 | 2.78e5 | 2.24e5 | 4.54e5 | 3.80e5 | inactive
CG32246 | DRSC24361 | 1.01e6 | 8.35e5 | 7.46e5 | 7.26e5 | inactive
CG10041 | DRSC14179 | 1.93e5 | 2.22e5 | 2.96e6 | 3.47e6 | inactive
CG10041 | DRSC29505 | 5.48e5 | 6.40e5 | 7.93e5 | 7.93e5 | inactive
trem (trade embargo) | DRSC15575 | 2.30e5 | 1.40e5 | 2.35e6 | 2.11e6 | inactive
CG34228 | DRSC38878 | 6.03e5 | 6.39e5 | 1.41e6 | 1.76e6 | inactive
ItgaPS5 (Integrin alphaPS5 subunit) | DRSC04501 | 4.53e5 | 3.45e5 | 2.34e6 | 1.85e6 | inactive
ItgaPS5 (Integrin alphaPS5 subunit) | DRSC28842 | 5.31e5 | 5.26e5 | 1.36e6 | 1.41e6 | inactive
CG13300 | DRSC09974 | 19998 | 43278 | 5.06e5 | 5.27e5 | inactive
CG13300 | DRSC25081 | 1.23e6 | 1.02e6 | 1.12e6 | 1.10e6 | inactive
CG3222 | DRSC10355 | 2.29e5 | 1.96e5 | 2.15e6 | 2.43e6 | inactive
slo (slowpoke) | DRSC17057 | 59113 | 50026 | 4.85e5 | 4.26e5 | inactive
slo (slowpoke) | DRSC23295 | 8.83e5 | 9.28e5 | 1.38e6 | 1.17e6 | inactive

Targets listed so far whose target name begins with F or f:
gene | dsRNA | firefly reporter light, replicate 1 | firefly reporter light, replicate 2 | Renilla control light, replicate 1 | Renilla control light, replicate 2 | Outcome
fbl (fumble) | DRSC11886 | 4.54e5 | 2.47e5 | 3.38e6 | 2.73e6 | inactive
fbl (fumble) | DRSC27922 | 4.74e5 | 4.07e5 | 1.33e6 | 1.36e6 | inactive
fbl (fumble) | DRSC29115 | 7.29e5 | 1.02e6 | 1.42e6 | 1.28e6 | inactive
